# Source: patent US20130072665A1
# Results are given in words; binding and its absence hold for the method and conditions named. A result given as binding can be weak or reduced; the word gives no strength.
# B1: 20D10 (antibody, V domains shown)
# VH: QIQLVQSGAEVKKPGASVKVSCKASGYPLTSYGISWVRQAPGQGLEWMGWISAYNGNTNYAQKVQGSVTMTTDTSTSTVYMELRSLRSDDTAVYYCARGYGMDVWGQGTTVTVSS
# VL: QSALTQPASVSGSPGQSITISCTGTSSDVGGYNSVSWYQQYPGKPPKLKIYEVSNRPSGVSNRFSGSKSGNTASLTISGLQAEDEADYFCSSYTSTSMVFGGGTKLTVL
# B2: 23G1 (antibody, V domains shown)
# VH: QVQLVQSGAEVKKPGASVKVSCKASGYTLTSYGISWVRQAPGQGLEWMGWVSFYNGNTNYAQKLQGRGTMTTDPSTSTAYMELRSLRSDDTAVYYCARGYGMDVWGQGTTVTVSS
# VL: QSALTQPASVSGSPGQSITISCTGTSSDVGGYNSVSWYQQHPGKAPKLMIYEVTNRPSGVSNRFSGSKSGNTASLTISGLQAEDEADYYCNSYTSTSMVFGGGTKLTVL
# B3: 26H5 (antibody, V domains shown)
# VH: QVQLVQSGAEVKKPGASVKVSCKASGYTLTSYGISWVRQAPGQGLEWMGWISFYNGNTNYAQKVQGRVTMTTDTSTSTVYMELRSLRSDDTAVYYCARGYGMDVWGQGTTVTVSS
# VL: QSALTQPASVSGSPGQSITISCTGTSSDVGGYNSVSWYQQHPGKPPKLMIYEVSNRPSGVSIRFSGSKSGNTASLTISGLQAEDEADYFCSSYTSTSMVFGGGTKLTVL
# B4: 31D1 (antibody, V domains shown)
# VH: QIQLVQSGAEVKKPGASVKVSCKASGYTLTSYGISWVRQAPGQGLEWMGWISFYNGNTNYAQKVQGRVTMTTDTSTSTVYMELRSLRSDDTAVYFCARGYGMDVWGQGTTVTVSS
# VL: QSALTQPASVSGSPGQSITISCTGTSSDVGGYNSVSWYQQHPGKPPKLMIYEVSNRPSGVSNRFSGSKSGNTASLTISGLQAEDEADYFCSSYTSTSMVFGGGTKLAVL
# B5: 28D6 (antibody, V domains shown)
# VH: QVQLVESGGGVVQPGRSLRLSCAASGFTFSSFGMHWVRQAPGKGLEWVALIWNDGSNKYYADSVKGRFTISRDNSKNTLYLQMNSLRAEDTAVYYCARAIAALYYYYGMDVWGQGTTVTVSS
# VL: QSVLTQPPTVSAAPGQKVTISCSGSSSNIGNNFVSWYQQLPGTAPKLLIYDYNKRPSGIPDRFSGSKSGTSATLGITGLQTGDEADYYCGTWDSSLSGYVFGTGTRVTVL
# B6: 27A6 (antibody, V domains shown)
# VH: QVHLVESGGGVVQPGRSLRLSCAASGFTFNSFGMHWVRQAPGKGLEWVALIWSDGSDKYYADSVKGRFTISRDNSKNTLYLQMNSLRAEDTAVYYCARAIAALYYYYGMDVWGQGTTVTVSS
# VL: QSVLTQPPSVSAAPGQKVTISCSGSSSNIGNNFVSWYQQFPGTAPKLLIYDYNKRPSGIPDRFSGSKSGTSATLGITGLQTGDEADYYCGTWDSSLSSYVFGTGTRVTVL
# B7: 28B12 (antibody, V domains shown)
# VH: QVQLVESGGGVVQPGRSLRLSCAASGFTFSSFGMHWVRQAPGKGLEWVALIWNDGSNKYYADSVKGRFTISRDNSKNTLYLQMNSLRAEDTAVYYCARAIAALYYYYGMDVWGHGTTVTVSS
# VL: QSVLTQPPSVSAAPGQKVTISCSGSSSNIGNNFVSWYQQLPGTAPKLLIYDYNKRPSGIPDRFSGSKSGTSATLGITGLQTGDEADYYCGTWDSSLSGYVFGTGTRVTVL
# B8: 22E2 (antibody, V domains shown)
# VH: QVQLVESGGGVVQPGRSLRLSCAASGFTFSSFGMHWVRQAPGKGLEWVALIWNDGSNKYYADSVKGRFTISRDNSKNTLYLQMNSLRAEDTAVYYCARAIAALYYYYGMDVWGQGTTVTVSS
# VL: QSVLTQPPSVSAAPGQKVTISCSGSSSNIGNNFVSWYQQLPGTAPKLLIYDYNKRPSGIPDRFSGSKSGTSATLGITGLQTGDEADYYCGTWDSSLSGYVFGTGTRVTVL
# B9: 3B6 (antibody, V domains shown)
# VH: QVQLVQSGAEVKKPGASVKVSCKASGYTFTSYGISWVRQAPGQGLEWMGWISTYNGNTNYAQKVQGRVTMTTDTSTSTAYMELRSLRSDDTAVYYCARGYTRDYWGQGTLVTVSS
# VL: QPVLTQPLFASASLGASVTLTCTLSSGYSSYEVDWYQQRPGKGPRFVMRVDTGGIVGSKGEGIPDRFSVLGSGLNRYLTIKNIQEEDESDYHCGADHGSGTNFVVVFGGGTKLTVL
# B10: 13B5 (antibody, V domains shown)
# VH: EVQLLESGGGLVQPGGSLRLSCAASGFTFSSYAMSWVRQAPGKGLEWVSTISGSGGRTYYADSVKGRFTISRDNSKNTLYLQMNSLRAEDTAVYYCAKEVGSPFDYWGQGTLVTVSS
# VL: QSVLTQPPSVSAAPGQKVTISCSGSNSNIGNNYVSWYQQLPGTAPKLLIYDNNKRPSGIPDRFSGSNSGTSATLGITGLQTGDEADYYCGTWDSSLSAVVFGGGTKLTVL
# B11: 17C2.1 (antibody, V domains shown)
# VH: QVQLVQSGAEVKKPGASVKVSCKASGYSFTSYGISWVRQAPGQGLEWMGWVSAYNGNTNYAQKFQGRVTMTTDTSTSTAYMELRSLRSDDTAVYYCARGYVMDVWGQGTTVTVSS
# VL: QSALTQPASVFGSPGQSITISCTGTSSDVGAYNSVSWYQQHPGKAPKRMIYEVSNRPSGVSNRFSGSKSGNTASLTISGLQAEDEADYYCSSYTSTNMVFGGGTKLTVL
# B12: 19H9 (antibody, V domains shown)
# VH: QVQLVQSGAEVKKPGASVKVSCKASGYALTSYGISWVRQAPGQGLEWMGWISAYNGNTNYAQKVQGRVTMTTDTSTSTVYMELRSLRSDDTAVYYCARGYGMDVWGQGTTVTVSS
# VL: QSALTQPASVSGSPGQSITISCTGTNSDVGGYNSVSWYQQHPGKPPKLMIYEVSNRPSGISNRFSGSKSGNTASLTISGLQAEDEADYFCSSYTSTSMVFGGGTKLTVL
# B13: 23B5 (antibody, V domains shown)
# VH: EVQLLESGGGLVQPGGSLRLSCAASGFTFSSYAMNWVRQAPGKGLEWVSTISGSGDNTYYADSVKGRFTISRDNSKNTLYLQMNSLRAEDTAVYYCAKKFVLMVYAMLDYWGQGTLVTVSS
# VL: DILMTQSPSSLSASVGDRVTITCRASQSISSYLNWYQQKPGKAPKVLIYAASSLQSGVPSRFSGSGSGTDFTLTINSLQPEDFATYYCQQSYSSPITFGQGTRLEIK
# B14: 25G4 (antibody, V domains shown)
# VH: EVQLLESGGGLVQPGGSLRLSCAASGFTFSSYAMNWVRQAPGKGLEWVSTISGSGGNTYYADSVKGRFTISRDNSKNTLYLQMNSLRAEDTAVYYCAKKFVLMVYAMLDYWGQGTLVTVSS
# VL: DIQMTQSPSSLSASVGDRVTITCRASQSISIYLNWYQQKPGKAPYLLIYAAASLQSGVPSRFSGSGSGTDFTLTISSLQPEDFATYYCQQSYSAPITFGQGTRLEIK
# B15: 26E10.1 (antibody, V domains shown)
# VH: QVQLVQSGAEVKKPGASVKVSCKASGYTLTSYGISWVRQAPGQGLEWMGWVSFYNGNTNYAQKLQGRGTMTTDPSTSTAYMELRSLRSDDTAVYYCARGYGMDVWGQGTTVTVSS
# VL: QSALTQPASVSGSPGQSITISCTGTSSDVGGYNSVSWYQQHPGKAPKLMIYEVSNRPSGVFNRFSGSKSGNTASLTISGLQAEDEADYYCNSYTSTSMVFGGGTKLTVL
# B16: 27E7 (antibody, V domains shown)
# VH: QVQLVQSGAEVKKPGASLKVSCKASGYSLTSYGISWVRQAPGQGLEWMGWISAYNGNTNYAQKVQGRVTMTTDTSTSTVYMEVRSLRSDDTAVYYCARGYGMDVWGQGTTVTVSS
# VL: QSALTQPASVSGSPGQSITISCTGTSSDVGGYNSVSWYQQHPGKPPKLMIYEVSNRPSGVSNRFSGSKSGNTASLTISGLQAEDEADYFCSSYTSTSMVFGGGTKLTVL
# B17: 27H5 (antibody, V domains shown)
# VH: QVQLVQSGAEVKRPGASVKVSCKASGYTLTSYGISWVRQAPGQGLEWMGWISVYNGNTNYAQKVQGRVTMTTDTSTSTVYMELRSLSSDDTAVYYCARGYGMDVWGQGTTVTVSS
# VL: QSALTQPASVSGSPGQSITISCTGTSSDVGGYNSVSWYQQHPGKPPKLMIYEVSNRPSGVSIRFSGSKSGNTASLTISGLQAEDEADYFCSSYTSTSMVFGGGTKLTVL
# B18: 30B9 (antibody, V domains shown)
# VH: QVQLVQSGAEVKKPGASVKVSCKASGYPLTSYGISWVRQAPGQGLEWMGWISAYNGNTNYAQKVQGRVTMTTDTSTSTVYMELRSLRSDDTAVYYCARGYGMDVWGQGTTVTVSS
# VL: QSALTQPASVSGSPGQSITISCTGTSSDVGGYNSVSWYQQHPGKPPKLMIYEVSNRPSGVSNRFSGSKSGNTASLTISGLQAEDEADYFCSSYTSTSMVFGGGTKLTVL
# B19: 27B2 (antibody, V domains shown)
# VH: QVQLQESGPGLVKPSQTLSLTCTVSGGSISSGGYYWSWIRQHPGKGLEWIGYIYNSGSTYYNPSLKSRVTISVDTSKNQFSLKLSSVTAADTAVYYCAREDTAMVPYFDYWGQGTLVTVSS
# VL: QSVLTQPPSVSGAPGQRVTISCTGSSSNIGAHYDVHWYQQVPGTAPKLLIYGNTYRPSGVPDRFSGSKSGTSASLAITGLQAEDEADYYCQSYDNSLSGVVFGGGTKLTVL
# Columns and labels:
# [1] = molecular target: human PCSK9 (proprotein convertase subtilisin kexin type 9) (human); assay: domain binding ELISA (coated antibody captures the PCSK9 form; OD650)
# [2] = molecular target: human PCSK9 (proprotein convertase subtilisin kexin type 9) (human); assay: ELISA, supernatant on biotinylated PCSK9, pH 7.4 against pH 6.0
Binder,binding [1],binding [2]
B1,binds,
B2,binds,
B3,binds,
B4,binds,
B5,binds,
B6,binds,
B7,binds,
B8,binds,
B9,binds,
B10,binds,
B11,binds,
B12,binds,
B13,binds,
B14,binds,
B15,binds,
B16,binds,
B17,binds,
B18,binds,
B19,,binds
